# Results reported in the supplement of paper PMC8728848.
# The other results are listed elsewhere or left out.
# Tests used:
# Experiment in all cases: glycan array binding signal (z-score within array); higher = stronger binding
# Settings in all cases: glycan notation: IUPAC condensed, linker removed
# Fuc(a1-2)Gal(b1-4)Glc = target: Fuc(a1-2)Gal(b1-4)Glc
# Procedure, shortened: (§1)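 Glycan array data came from 3228 arrays in the Consortium for Functional Glycomics database, and only arrays with an available protein sequence were kept. Glycan names were put into IUPAC-condensed notation, and columns mapping to the same glycan were averaged. The binding signal is a within-array Z-score, averaged across arrays of one protein sequence run at different concentrations or buffers and across linkers. A negative Z-score can be read as non-binding.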
# Fuc(a1-2)Gal(b1-4)Glc6S = target: Fuc(a1-2)Gal(b1-4)Glc6S
# Procedure, shortened: as §1
# Fuc(a1-2)Gal(b1-4)GlcNAc = target: Fuc(a1-2)Gal(b1-4)GlcNAc
# Procedure, shortened: as §1
# [1] = target: Fuc(a1-2)Gal(b1-4)GlcNAc(b1-2)Man
# Procedure, shortened: as §1
# [2] = target: Fuc(a1-2)Gal(b1-4)GlcNAc(b1-2)Man(a1-3)[Fuc(a1-2)Gal(b1-4)GlcNAc(b1-2)Man(a1-6)]Man(b1-4)GlcNAc(b1-4)GlcNAc
# Procedure, shortened: as §1
# [3] = target: Fuc(a1-2)Gal(b1-4)GlcNAc(b1-2)Man(a1-3)[Fuc(a1-2)Gal(b1-4)GlcNAc(b1-2)Man(a1-6)]Man(b1-4)GlcNAc(b1-4)[Fuc(a1-6)]GlcNAc
# Procedure, shortened: as §1
# [4] = target: Fuc(a1-2)Gal(b1-4)GlcNAc(b1-2)[Fuc(a1-2)Gal(b1-4)GlcNAc(b1-4)]Man(a1-3)[Fuc(a1-2)Gal(b1-4)GlcNAc(b1-2)Man(a1-6)]Man(b1-4)GlcNAc(b1-4)GlcNAc
# Procedure, shortened: as §1
# [5] = target: Fuc(a1-2)Gal(b1-4)GlcNAc(b1-3)Gal(b1-4)GlcNAc
# Procedure, shortened: as §1
# [6] = target: Fuc(a1-2)Gal(b1-4)GlcNAc(b1-3)Gal(b1-4)GlcNAc(b1-2)Man(a1-3)[Fuc(a1-2)Gal(b1-4)GlcNAc(b1-3)Gal(b1-4)GlcNAc(b1-2)Man(a1-6)]Man(b1-4)GlcNAc(b1-4)GlcNAc
# Procedure, shortened: as §1
# [7] = target: Fuc(a1-2)Gal(b1-4)GlcNAc(b1-3)Gal(b1-4)GlcNAc(b1-3)Gal(b1-4)GlcNAc
# Procedure, shortened: as §1
# [8] = target: Fuc(a1-2)Gal(b1-4)GlcNAc(b1-3)GalNAc
# Procedure, shortened: as §1
# [9] = target: Fuc(a1-2)Gal(b1-4)GlcNAc(b1-3)[Fuc(a1-2)Gal(b1-4)GlcNAc(b1-6)]GalNAc
# Procedure, shortened: as §1
# [10] = target: Fuc(a1-2)Gal(b1-4)GlcNAc(b1-3)[Fuc(a1-3)[Gal(b1-4)]GlcNAc(b1-6)]Gal(b1-4)Glc
# Procedure, shortened: as §1
# [11] = target: Fuc(a1-2)Gal(b1-4)GlcNAc(b1-6)GalNAc
# Procedure, shortened: as §1
# [12] = target: Fuc(a1-2)Gal(b1-4)GlcNAc6S
# Procedure, shortened: as §1
# [13] = target: Fuc(a1-2)Gal(b1-4)[Fuc(a1-3)]GlcNAc
# Procedure, shortened: as §1
# [14] = target: Fuc(a1-2)Gal(b1-4)[Fuc(a1-3)]GlcNAc(b1-2)Man(a1-3)[Fuc(a1-2)Gal(b1-4)[Fuc(a1-3)]GlcNAc(b1-2)Man(a1-6)]Man(b1-4)GlcNAc(b1-4)[Fuc(a1-6)]GlcNAc
# Procedure, shortened: as §1
# [15] = target: Fuc(a1-2)Gal(b1-4)[Fuc(a1-3)]GlcNAc(b1-2)[Fuc(a1-2)Gal(b1-4)[Fuc(a1-3)]GlcNAc(b1-4)]Man(a1-3)[Fuc(a1-2)Gal(b1-4)[Fuc(a1-3)]GlcNAc(b1-2)Man(a1-6)]Man(b1-4)GlcNAc(b1-4)GlcNAc
# Procedure, shortened: as §1
# [16] = target: Fuc(a1-2)Gal(b1-4)[Fuc(a1-3)]GlcNAc(b1-3)Gal(b1-4)[Fuc(a1-3)]GlcNAc
# Procedure, shortened: as §1
# [17] = target: Fuc(a1-2)Gal(b1-4)[Fuc(a1-3)]GlcNAc(b1-3)Gal(b1-4)[Fuc(a1-3)]GlcNAc(b1-3)Gal(b1-4)[Fuc(a1-3)]GlcNAc
# Procedure, shortened: as §1
# [18] = target: Fuc(a1-2)Gal(b1-4)[Fuc(a1-3)]GlcNAc(b1-3)GalNAc
# Procedure, shortened: as §1
# [19] = target: Fuc(a1-2)Gal(b1-4)[Fuc(a1-3)]GlcNAc(b1-3)[Neu5Ac(a2-6)Gal(b1-4)GlcNAc(b1-6)]Gal(b1-4)Glc
# Procedure, shortened: as §1
# [20] = target: Fuc(a1-2)Gal3S(b1-4)GlcNAc
# Procedure, shortened: as §1
binder,measurement,setting,value
"SspB A3vp1 (Streptococcus gordonii), Q54186 (protein) MTNEADYQAKLAAYQTELARVQKANADAKATYEKAVEDNKAKNAAIKAENEEIKQRNAVAKTDYEAKLAKYEADLAKYKKEFAAYTAALAEAESKKKQDGYLSEPRSQSLNFKSEPNAIRTIDSSVHQYGQQELDALVKSWGISPTNPDRKKSRAYSYFNAINSNNTYAKLVLEKDKPVDVTYTGLKNSSFNGKKISKVVYTYTLKETGFNDGTKMTMFASSDPTVTAWYNDYFTSTNINVKVKFYDEEGQLMNLTGGLVNFSSLNRGNGSGAIDKDAIESVRNFNGRYIPISGSSIKIHENNSAYADSSNAEKSLGARWNTSEWDTTSSPNNWYGAIVGEITQSEISFNMASSKSGNIWFAFNSNINAIGVPTKPVAPTAPTQPMYETEKPLEPAPVAPSYENEPTPPVKTPDQPEPSKPAAALEHHHHHH",glycan array binding signal (z-score),Fuc(a1-2)Gal(b1-4)Glc,0.039
same,glycan array binding signal (z-score),Fuc(a1-2)Gal(b1-4)Glc6S,-0.225
same,glycan array binding signal (z-score),Fuc(a1-2)Gal(b1-4)GlcNAc,-0.265
same,glycan array binding signal (z-score),[1],-0.22
same,glycan array binding signal (z-score),[2],1.7
same,glycan array binding signal (z-score),[3],-0.372
same,glycan array binding signal (z-score),[4],0.153
same,glycan array binding signal (z-score),[5],-0.772
same,glycan array binding signal (z-score),[6],1.6
same,glycan array binding signal (z-score),[7],0.165
same,glycan array binding signal (z-score),[8],0.239
same,glycan array binding signal (z-score),[9],-0.323
same,glycan array binding signal (z-score),[10],-0.465
same,glycan array binding signal (z-score),[11],1.07
same,glycan array binding signal (z-score),[12],-0.855
same,glycan array binding signal (z-score),[13],-0.605
same,glycan array binding signal (z-score),[14],0.172
same,glycan array binding signal (z-score),[15],1.28
same,glycan array binding signal (z-score),[16],-0.322
same,glycan array binding signal (z-score),[17],-0.617
same,glycan array binding signal (z-score),[18],2.73
same,glycan array binding signal (z-score),[19],-0.518
same,glycan array binding signal (z-score),[20],-0.407

# Some of the entries so far, with tabs:
binder	measurement	setting	value
SspB A3vp1 (Streptococcus gordonii), Q54186 (protein) MTNEADYQAKLAAYQTELARVQKANADAKATYEKAVEDNKAKNAAIKAENEEIKQRNAVAKTDYEAKLAKYEADLAKYKKEFAAYTAALAEAESKKKQDGYLSEPRSQSLNFKSEPNAIRTIDSSVHQYGQQELDALVKSWGISPTNPDRKKSRAYSYFNAINSNNTYAKLVLEKDKPVDVTYTGLKNSSFNGKKISKVVYTYTLKETGFNDGTKMTMFASSDPTVTAWYNDYFTSTNINVKVKFYDEEGQLMNLTGGLVNFSSLNRGNGSGAIDKDAIESVRNFNGRYIPISGSSIKIHENNSAYADSSNAEKSLGARWNTSEWDTTSSPNNWYGAIVGEITQSEISFNMASSKSGNIWFAFNSNINAIGVPTKPVAPTAPTQPMYETEKPLEPAPVAPSYENEPTPPVKTPDQPEPSKPAAALEHHHHHH	glycan array binding signal (z-score)	[5]	-0.772
same	glycan array binding signal (z-score)	[6]	1.6
same	glycan array binding signal (z-score)	[7]	0.165
same	glycan array binding signal (z-score)	[8]	0.239
same	glycan array binding signal (z-score)	[9]	-0.323
